Results on three molecules are retold here after paper PMC12000354.

Sequences of proteins named here, by UniProt entry; tags and fusion partners are left off.
UniProt Q86WJ1: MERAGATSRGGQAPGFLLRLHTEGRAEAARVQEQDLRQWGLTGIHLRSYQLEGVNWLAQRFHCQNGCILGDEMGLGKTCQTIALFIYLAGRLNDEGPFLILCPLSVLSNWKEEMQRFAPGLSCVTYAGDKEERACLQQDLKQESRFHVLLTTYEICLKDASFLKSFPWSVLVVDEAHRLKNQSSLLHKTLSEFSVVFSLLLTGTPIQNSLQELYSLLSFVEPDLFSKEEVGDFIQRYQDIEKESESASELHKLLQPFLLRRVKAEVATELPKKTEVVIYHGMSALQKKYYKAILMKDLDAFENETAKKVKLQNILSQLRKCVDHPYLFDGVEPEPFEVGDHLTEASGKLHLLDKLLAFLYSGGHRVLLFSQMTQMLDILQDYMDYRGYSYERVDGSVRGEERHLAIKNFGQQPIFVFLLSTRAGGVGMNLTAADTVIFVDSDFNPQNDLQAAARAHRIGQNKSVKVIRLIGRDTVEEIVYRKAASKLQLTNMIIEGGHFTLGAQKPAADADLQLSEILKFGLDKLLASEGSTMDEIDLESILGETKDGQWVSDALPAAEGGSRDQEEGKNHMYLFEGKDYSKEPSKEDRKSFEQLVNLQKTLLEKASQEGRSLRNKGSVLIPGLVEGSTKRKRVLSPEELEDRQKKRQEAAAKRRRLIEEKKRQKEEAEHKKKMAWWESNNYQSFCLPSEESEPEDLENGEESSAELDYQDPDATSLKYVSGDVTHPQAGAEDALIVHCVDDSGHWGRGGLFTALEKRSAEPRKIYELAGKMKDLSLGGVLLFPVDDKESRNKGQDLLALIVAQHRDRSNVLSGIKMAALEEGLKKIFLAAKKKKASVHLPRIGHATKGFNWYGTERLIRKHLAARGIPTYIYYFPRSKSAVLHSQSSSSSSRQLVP

Assay [1] concerns the target T1, Flag-VRK1 (Vaccinia-related kinase 1) (UniProt Q99986).
T1 sequence: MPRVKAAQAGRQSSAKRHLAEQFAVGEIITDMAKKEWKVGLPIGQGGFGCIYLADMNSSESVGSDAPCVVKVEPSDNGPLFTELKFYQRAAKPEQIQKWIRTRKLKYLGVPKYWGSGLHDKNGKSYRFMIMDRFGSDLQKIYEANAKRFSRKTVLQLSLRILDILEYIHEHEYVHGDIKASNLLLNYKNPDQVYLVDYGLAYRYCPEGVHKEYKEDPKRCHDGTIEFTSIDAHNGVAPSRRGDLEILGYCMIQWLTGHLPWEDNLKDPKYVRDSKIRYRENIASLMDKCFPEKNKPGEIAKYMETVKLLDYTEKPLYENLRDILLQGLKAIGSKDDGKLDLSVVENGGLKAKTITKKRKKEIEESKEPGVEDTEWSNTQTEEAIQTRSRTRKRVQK
Nature of the assay: co-IP; 293T cells with ectopic Flag-VRK1 and HA-CHD1L; anti-Flag or anti-HA magnetic beads, overnight 4 °C, Western blot; both directions. Background: A western blot detects proteins with antibodies after separation by electrophoresis.

Assay [2] concerns the target T1, Flag-VRK1 (Vaccinia-related kinase 1). Nature of the assay: co-IP; Huh7 cells with ectopic Flag-VRK1 and HA-CHD1L; anti-Flag or anti-HA magnetic beads, overnight 4 °C, Western blot; both directions.
Assay [3] has the same target. Nature of the assay: co-IP; Huh7 cells with control plasmid or transient Flag-VRK1; Flag-VRK1 immunoprecipitated (anti-Flag magnetic beads, overnight 4 °C, IP lysis solution), endogenous partners by Western blot.
The target of assay [4] is HA-CHD1L (chromodomain helicase DNA binding protein 1-like) (human) (UniProt Q86WJ1). Nature of the assay: co-IP; 293T cells with ectopic Flag-VRK1 and HA-CHD1L; anti-Flag or anti-HA magnetic beads, overnight 4 °C, Western blot; both directions.
For assay [5] the target is unchanged. Nature of the assay: co-IP; Huh7 cells with ectopic Flag-VRK1 and HA-CHD1L; anti-Flag or anti-HA magnetic beads, overnight 4 °C, Western blot; both directions.

Results are given in words; binding and its absence hold for the method and conditions named. In cells and extracts the contact can be indirect. Some binding calls cover weakened binding; strength is not graded here. Where a sequence is shown, tags or fusion partners need not be part of it.

On to “HA-CHD1L (chromodomain helicase DNA binding protein 1-like) (from UniProt Q86WJ1 1-897)”, for which the binding result in assay [1] and in assay [2] was “binds” in each case. “endogenous CHD1L (chromodomain helicase DNA binding protein 1-like) (from UniProt Q86WJ1 1-897)”: the binding result in assay [3] is recorded as “binds”.

B1: Flag-VRK1 (Vaccinia-related kinase 1) (enzyme, UniProt Q99986 1-396)
chain: T1 sequence
On to B1, for which the binding result in assay [4] and in assay [5] was “binds” throughout.
